Inconclusive results, whose numbers are uncertain, are shown with a selection of clear calls. Potencies beside an inconclusive call are fits to weak or partial responses and may not hold up. The source made the active and inactive calls. How the source made its calls: active means hit-call score of the fitted dose curve at least 0.9, where 1 is the maximum; inconclusive means response in the unintended direction; inactive means score below 0.9.
Assay: Tanguay_ZF_120hpf_SWIM_legacy: (Legacy) Oregon State University Tanguay Lab 120 Hour Post-fertilization zebrafish Assay for Swim Bladder Malformation (AID 2283654);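 further: swim bladder malformation in each larva scored yes or no under brightfield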
Outline: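 Static waterborne exposure of single dechorionated Tropical 5D zebrafish embryos, 6–120 hpf, 28C, 0.64% DMSO final. Read-out: swim bladder malformation, present/absent, relative to DMSO negative control; trimethyltin chloride 5uM served as positive control.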

Row | Structure (SMILES) | AC50 | outcome
1 | NC1CCCCC1 | inconclusive: 4.1 µM | 
2 | O=C=NCCCCCCN=C=O | inconclusive: 28.8 µM | 
3 | OC1CCC(C2CCCCC2)CC1 (stereo not given) |  | inactive
4 | Cc1cc2c(cc1C(F)(F)F)N(C(=O)Nc1ccc(Oc3cccnc3C)nc1)CC2 |  | inactive
5 | ClC1=C(Cl)C(Cl)(Cl)C(Cl)=C1Cl | inconclusive: 152 µM | 
6 | CC1=CC(=O)/C(=C(/C)O)C(=O)O1 | inconclusive: 103 µM | 
7 | CC[C@H](C)[C@@H](C(=O)O)n1sc2ccccc2c1=O | inconclusive: 1.63 µM | 
8 | COc1cccc([C@H](O)C2CCN(CCc3ccc(F)cc3)CC2)c1OC | inconclusive: 121 µM | 
9 | O=C1CCC(C2CCCCC2)CC1 |  | inactive
10 | O=c1ccc2ccccc2o1 | inconclusive: 202 µM | 
11 | O=[N+]([O-])C(CO)(CO)CO |  | inactive

2 entries from above, field by field:
CC1=CC(=O)/C(=C(/C)O)C(=O)O1
  AC50: inconclusive: 103 µM
CC[C@H](C)[C@@H](C(=O)O)n1sc2ccccc2c1=O
  AC50: inconclusive: 1.63 µM

Assay: Tanguay_ZF_120hpf_TRUN_legacy: (Legacy) Oregon State University Tanguay Lab 120 Hour Post-fertilization zebrafish Assay for Truncated Body (AID 2283655)
Outline: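 Dechorionated Tropical 5D wild-type embryos placed singly from 6 hpf and statically exposed to 120 hpf at 28C, final DMSO 0.64%. Truncated body scored as present/absent by brightfield; not scored in dead embryos.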

Row | Structure (SMILES) | outcome | AC50
12 | Cc1ccc(C)c(C)c1 | inactive | 
13 | Cc1cn([C@H]2C[C@H](N=[N+]=[N-])[C@@H](CO)O2)c(=O)[nH]c1=O | inactive | 
14 | O=C(O)c1ccccc1C(=O)OCc1ccccc1 |  | inconclusive: 44.5 µM
15 | COC(=O)CCC(=O)OC | inactive | 
16 | CCc1c(C(=O)NN2CCCCC2)nn(-c2ccc(Cl)cc2Cl)c1-c1ccc(Br)cc1 |  | inconclusive: 201 µM
17 | c1ccc2c(c1)Cc1ccccc1-2 |  | inconclusive: 185 µM
18 | Oc1cccc(O)c1 |  | inconclusive: 6.41 µM
19 | CN(C)C(=O)Nc1ccc(Cl)c(Cl)c1 |  | inconclusive: 5.89 µM
20 | O=[N+]([O-])C(CO)(CO)CO |  | inconclusive: 76.4 µM

From PubChem BioAssay (EPA / NIEHS)
